Data published in the supplement of paper PMC9233669.
This sample is rich in variants without activity.

What was measured:
biotinyl-Met-oxazolone = assay: self-aminoacylation, catalytic enhancement (BMO) (fold over background); higher = more active; k-Seq, kA / k0A0; sequences stand for … in GGGAAUGGAUCCACAUCUACGAAUUC…UUCACUGCAGACUUGACGAAGCUG
Summary of the method: (§1)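 The uncatalyzed rate is the low-activity peak of a bimodal Gaussian fit, and catalytic enhancement is median kA divided by it. The kA values came from pseudo-first-order fits, with 1000 bootstraps, of per-sequence fraction reacted measured by streptavidin capture, triplicate qPCR and Illumina sequencing. Mutagenized RNA pools with a 21-nt variable region (0.43 μM) were reacted with each biotinyl-aminoacyl-oxazolone at 2–1250 μM in 50 μL HEPES/NaCl/KCl/MgCl2/CaCl2 buffer with 5% acetonitrile, pH 6.9–7.0, for 90 minutes at room temperature.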

biotinyl-Trp-oxazolone = assay: self-aminoacylation, catalytic enhancement (BWO) (fold over background); higher = more active; k-Seq, kA / k0A0; sequences stand for … in GGGAAUGGAUCCACAUCUACGAAUUC…UUCACUGCAGACUUGACGAAGCUG
Summary of the method: as §1

biotinyl-Leu-oxazolone = assay: self-aminoacylation, catalytic enhancement (BLO) (fold over background); higher = more active; k-Seq, kA / k0A0; sequences stand for … in GGGAAUGGAUCCACAUCUACGAAUUC…UUCACUGCAGACUUGACGAAGCUG
Summary of the method: as §1

biotinyl-Val-oxazolone = assay: self-aminoacylation, catalytic enhancement (BVO) (fold over background); higher = more active; k-Seq, kA / k0A0; sequences stand for … in GGGAAUGGAUCCACAUCUACGAAUUC…UUCACUGCAGACUUGACGAAGCUG
Summary of the method: as §1

biotinyl-Ile-oxazolone = assay: self-aminoacylation, catalytic enhancement (BIO) (fold over background); higher = more active; k-Seq, kA / k0A0; sequences stand for … in GGGAAUGGAUCCACAUCUACGAAUUC…UUCACUGCAGACUUGACGAAGCUG
Summary of the method: as §1

biotinyl-Phe-oxazolone = assay: self-aminoacylation, catalytic enhancement (BFO) (fold over background); higher = more active; k-Seq, kA / k0A0; sequences stand for … in GGGAAUGGAUCCACAUCUACGAAUUC…UUCACUGCAGACUUGACGAAGCUG
Summary of the method: as §1

Row | Sequence | self-aminoacylation (biotinyl-Met-oxazolone) | self-aminoacylation (biotinyl-Trp-oxazolone) | self-aminoacylation (biotinyl-Leu-oxazolone) | self-aminoacylation (biotinyl-Val-oxazolone) | self-aminoacylation (biotinyl-Ile-oxazolone) | self-aminoacylation (biotinyl-Phe-oxazolone)
1 | AAGUUUGCUAUUAUUCGCAAG [Fam3.1 aminoacylation ribozyme variant] | 0.96 | 0.896 | 0.91 | 0.901 | 1.15 | 0.908
2 | AAGUUUGCUCAUAGACGCAAG [Fam3.1 aminoacylation ribozyme variant] | 0.451 | 0.627 | 0.548 | 0.564 | 0.587 | 0.968
3 | AAGUUUGCUGAUAGACGCAAG [Fam3.1 aminoacylation ribozyme variant] | 0.727 | 0.929 | 0.712 | 0.83 | 0.538 | 0.471
4 | AAGUUUGCUGAUGGUCGCAAG [Fam3.1 aminoacylation ribozyme variant] | 0.894 | 0.79 | 0.787 | 0.691 | 0.915 | 0.8
5 | AAGUUUGCUUAUAGUCACAAG [Fam3.1 aminoacylation ribozyme variant] | 0.955 | 1.06 | 0.776 | 1.23 | 1.14 | 1.25
6 | AAGUUUGCUUAUAGUCGGAAG [Fam3.1 aminoacylation ribozyme variant] | 0.828 | 1.14 | 0.751 | 0.725 | 0.812 | 1.44
7 | AAGUUUGGUAAUAGUAGCAAG [Fam3.1 aminoacylation ribozyme variant] | 1.08 | 0.787 | 0.878 | 0.882 | 1.01 | 0.668
8 | AAGUUUGGUAAUUGUCGCAAG [Fam3.1 aminoacylation ribozyme variant] | 1.2 | 1.04 | 1.14 | 1.08 | 1.22 | 1.19
9 | AAGUUUUCUAACAGUCGCAAG [Fam3.1 aminoacylation ribozyme variant] | 1.48 | 1.66 | 1.72 | 1.51 | 2.04 | 3.07
10 | AAGUUUUCUAAUAAUCGCAAG [Fam3.1 aminoacylation ribozyme variant] | 1.08 | 1.35 | 1.08 | 1.27 | 1.55 | 1.9
11 | AAGUUUUCUAAUAGUCGCAAA [Fam3.1 aminoacylation ribozyme variant] | 1.54 | 2.46 | 1.41 | 1.54 | 1.93 | 3.41
12 | AAGUUUUCUAAUAGUCGCAAC [Fam3.1 aminoacylation ribozyme variant] | 1.2 | 1.89 | 1.26 | 1.27 | 1.46 | 2.43
13 | AAUACCCUGGUCAUCGAGGGA [Fam2.1 aminoacylation ribozyme variant] | 1.18 | 1.85 | 1.58 | 1.94 | 1.51 | 1.13
14 | AAUACCCUGGUCAUCGAUUGA [Fam2.1 aminoacylation ribozyme variant] | 0.743 | 0.661 | 0.966 | 0.979 | 0.971 | 0.409
15 | AAUACCCUGGUCGUCGAGUGA [Fam2.1 aminoacylation ribozyme variant] | 0.516 | 0.531 | 0.857 | 0.796 | 0.776 | 0.434
16 | AAUCGCCUAGGUCAUCGGGUG [Fam2.2 aminoacylation ribozyme variant] | 10.4 | 10 | 9.78 | 8.02 | 6.97 | 72.9
17 | AAUUUUGCUAAUAGUCGCACG [Fam3.1 aminoacylation ribozyme variant] | 1.87 | 1.17 | 1.6 | 1.16 | 1.66 | 1.88
18 | ACACACAUCAAGCAAUCGGUC [Fam1B.1 aminoacylation ribozyme variant] | 1.14 | 1.37 | 1.17 | 1.17 | 1.3 | 1.9
19 | ACCCACUUCAAGCAAUCGGUC [Fam1B.1 aminoacylation ribozyme variant] | 1.15 | 15.2 | 1.37 | 1.29 | 1.11 | 23.3
20 | ACGUUGGCUAAUAGUCGCAAG [Fam3.1 aminoacylation ribozyme variant] | 1.61 | 1.55 | 1.77 | 1.22 | 1.55 | 1.63
21 | ACGUUUGCCAAUAGUCGCAAG [Fam3.1 aminoacylation ribozyme variant] | 2.04 | 1.65 | 2.16 | 1.67 | 1.73 | 6.32
22 | ACGUUUGCUAAUAGUCCCAAG [Fam3.1 aminoacylation ribozyme variant] | 1.31 | 1.4 | 0.928 | 0.859 | 1.05 | 2
23 | ACGUUUGCUAAUAGUCGCAUG [Fam3.1 aminoacylation ribozyme variant] | 2.14 | 1.87 | 2.5 | 1.97 | 2.21 | 3.06
